The record followed here is the supplement of paper PMC8256030.

Molecules are shown by their SMILES. Where “and” joins values, the source holds several entries; their conditions need not be identical. Equal values may be shown once. Some of the results follow. This data set is noisy: repeats of one test often differ as much as different tests do.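 HEK293T cells were given each compound shortly before transfection with a reporter in which red mCherry is followed by the SARS-CoV-2 frameshift element and then GFP in the −1 frame, so GFP appears only after frameshifting.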

This assay concerns SARS-CoV-2 -1 PRF reporter mCherry-FSE-GFP(-1). Nature of the assay: percent effect, decrease of GFP/mCherry ratio (-1 PRF reporter) relative to controls; higher = stronger frameshift inhibition. The settings on record: 10 µM; 24 h; HEK293T.
For the compound `CN(C)CCCN1c2ccccc2Sc2ccc(Cl)cc21` [chlorpromazine], the percent effect is -0.768% and -0.815%. To `Cc1c(N)nc([C@H](CC(N)=O)NC[C@H](N)C(N)=O)nc1C(=O)N[C@H](C(=O)N[C@H](C)[C@@H](O)[C@H](C)C(=O)N[C@H](C(=O)NCCc1nc(-c2nc(C(=O)NCCC[S+](C)C)cs2)cs1)[C@@H](C)O)[C@@H](OC1OC(CO)C(O)C(O)C1OC1OC(CO)C(O)C(OC(N)=O)C1O)c1cnc[nH]1` (some centres undefined) [Bleomycin] belongs -6.33% and 3.48%; to `COc1cc2ncnc(Nc3ccc(F)c(Cl)c3)c2cc1OCCCN1CCOCC1` [gefitinib], -5.79% and -1.13%. For the compound `C=C1/C(=C\C=C2/CCC[C@]3(C)[C@@H]([C@H](C)CCCC(C)C)CC[C@@H]23)C[C@@H](O)C[C@@H]1O` [alfacalcidol], the percent effect was -4.04% and -0.617%. As to `CC1(C)O[C@@H]2C[C@H]3[C@@H]4CCC5=CC(=O)C=C[C@]5(C)[C@H]4[C@@H](O)C[C@]3(C)[C@]2(C(=O)CO)O1`, the percent effect was -5.29% and -8.83%. For the compound `O=C(O)CCC(=O)c1ccc(-c2ccccc2)cc1` [fenbufen], the percent effect was -5.89% and -10.4%. To `CC(C)NCC(O)c1ccc(O)c(O)c1` (centres undefined) [isoprenaline] belongs -3.51% and -0.417%. To `O=c1[nH]c(=O)n([C@H]2C[C@H](O)[C@@H](CO)O2)cc1F` [floxuridine] belongs -1.38% and -6.8%; to `CNCCC(Oc1ccc(C(F)(F)F)cc1)c1ccccc1` (centres undefined) [fluoxetine], -0.269% and -2.69%; to `C#C[C@]1(O)CC[C@H]2[C@@H]3CCC4=CC(=O)CC[C@]4(C)[C@H]3CC[C@@]21C` [ethisterone], -1.18% and -6.49%. Then `Cc1ccc(C(=O)Nc2ccc(S(=O)(=O)O)c3cc(S(=O)(=O)O)cc(S(=O)(=O)O)c23)cc1NC(=O)c1cccc(NC(=O)Nc2cccc(C(=O)Nc3cc(C(=O)Nc4ccc(S(=O)(=O)O)c5cc(S(=O)(=O)O)cc(S(=O)(=O)O)c45)ccc3C)c2)c1` [suramin sodium], with -0.805% and -18%; and `O=C(CCCN1CCN(c2ccccn2)CC1)c1ccc(F)cc1` [azaperone], with 1.32% and -6.99%. As for `N=C(N)N1CCc2ccccc2C1` [debrisoquine], the percent effect is -3.87% and 1.81% and 0.97%. To `CSc1ccc2c(c1)N(CCC1CCCCN1C)c1ccccc1S2` (centres undefined) [thioridazine] belongs -4.31% and 1.1%; to `O=P1(N(CCCl)CCCl)NCCCO1` (centres undefined) [cyclophosphamide], 0.295% and -6.02%. To `O=C(O)Cc1ccccc1Nc1c(Cl)cccc1Cl` [diclofenac] belongs -4.41% and -0.763%; to `Clc1ccc(CCC(Cn2ccnc2)Sc2c(Cl)cccc2Cl)cc1` (centres undefined) [butoconazole], 0.147% and -8.19%.

For `COc1ccc(C2CNC(=O)C2)cc1OC1CCCC1` (centres undefined) [rolipram], the percent effect is -5.44% and -0.602%.

On to `COC(=O)C1=C(C)NC(C)=C(C(=O)OCCN2CCN(C(c3ccccc3)c3ccccc3)CC2)C1c1cccc([N+](=O)[O-])c1` (centres undefined) [manidipine], for which the percent effect is 1.42% and -1.84%. To `CC[C@]1(O)C[C@@H]2CN(CCc3c([nH]c4ccccc34)[C@@](C(=O)OC)(c3cc4c(cc3OC)N(C)[C@H]3[C@@](O)(C(=O)OC)[C@H](OC(C)=O)[C@]5(CC)C=CCN6CC[C@]43[C@@H]65)C2)C1` [Vinblastine] belongs -4.07% and -8.05%; to `COC(=O)C1=C(C)NC(C)=C(C(=O)OCC(C)C)C1c1ccccc1[N+](=O)[O-]` (centres undefined) [nisoldipine], 2.87% and -6.36%. Turning to `CNCCCC12CCC(c3ccccc31)c1ccccc12` [maprotiline], the percent effect is 1.57% and -8.44%. To `C#C[C@]1(O)CC[C@H]2[C@@H]3CCC4=CC(=O)CC[C@@H]4[C@H]3CC[C@@]21C` [norethisterone] belongs -1.78% and -2.47%. As to `CNC1(C)C2CCC(C2)C1(C)C` (centres undefined) [mecamylamine], the percent effect was -5.15% and -4.32% and -2.7%.

As for `CCCCCCCCCCCCCCCCOP(=O)([O-])OCC[N+](C)(C)C` [miltefosine], the percent effect is -3.38% and -2.99%.

For `CC(C)Cn1cnc2c(N)nc3ccccc3c21` [imiquimod], the percent effect is -4.82% and 0.338%. In the case of `CC(C(=O)O)c1cccc(Oc2ccccc2)c1` (centres undefined) [fenoprofen], the percent effect was 0.835% and -11.7%.

Take `CN(C)CCC=C1c2ccccc2CCc2ccccc21` [amitriptyline]: the percent effect is -4.35% and -3.95%. To `O=C(O)CCCc1ccc(N(CCCl)CCCl)cc1` [chlorambucil] belongs 1.88% and -12.6%; to `Cc1ccccc1C(OCCN(C)C)c1ccccc1` (centres undefined) [orphenadrine], -2.45% and 1.8%. To `O=C(O)c1cccnc1Nc1cccc(C(F)(F)F)c1` [niflumic acid] belongs 0.433% and -3.3%; to `C[C@]12CC[C@@H]3c4ccc(O)cc4CC[C@H]3[C@@H]1CC[C@@H]2O` [estradiol], -3.61% and -7.72%; to `C#C[C@]1(O)CC[C@H]2[C@@H]3CCC4=Cc5oncc5C[C@]4(C)[C@H]3CC[C@@]21C` [danazol], -0.907% and -6.37%. Then `COc1ccc2c(c1)c(CC(=O)OCC(=O)O)c(C)n2C(=O)c1ccc(Cl)cc1` [acemetacin], with -0.484% and -0.472%; and `O=S(=O)(c1cccc2cnccc12)N1CCCNCC1`, with 6.07% and -1.16%. `CC(C)OC(=O)CCC/C=C\C[C@@H]1[C@@H](/C=C/[C@@H](O)COc2cccc(C(F)(F)F)c2)[C@H](O)C[C@@H]1O` [travoprost]: the percent effect is -2.91% and -11.3%. Then `O=C1CCC(N2C(=O)c3ccccc3C2=O)C(=O)N1` (centres undefined) [thalidomide], with -0.0436% and 0.752%; and `O=P(O)(O)C(O)(Cc1cccnc1)P(=O)(O)O` [risedronic acid], with -1.43% and -4.07%.

On to `Cc1cnc(C(=O)O)c[n+]1[O-]` [acipimox], for which the percent effect was 3.09% and 0.0868%.
